Experiment [1] concerns the target IL23A-Chis (human) (UniProt Q9NPF7). Nature of the experiment: co-immunoprecipitation from conditioned medium of co-transfected 293T cells (Ni NTA-agarose pulls down zsig81-Cflag; anti-FLAG-agarose captures IL23A-Chis), western blot. Background: A western blot detects proteins with antibodies after separation by electrophoresis.
Experiment [2] shares this target. Nature of the experiment: co-immunoprecipitation, western blot.

Amino acid sequences for entries named in this document (tags omitted). A change or cut given only in a name is not applied to a line headed by its entry.
UniProt Q9NPF7: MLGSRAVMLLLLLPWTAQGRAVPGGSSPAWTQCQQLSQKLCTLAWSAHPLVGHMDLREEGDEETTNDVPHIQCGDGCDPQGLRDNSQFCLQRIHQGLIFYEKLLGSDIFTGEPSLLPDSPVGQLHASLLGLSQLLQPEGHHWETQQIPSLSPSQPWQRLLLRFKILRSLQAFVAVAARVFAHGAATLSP

These are yes or no findings as the source states them, for the method shown. Binding seen in cells or lysates may run through a third protein. Some binding calls cover weakened binding; strength is not graded here. Where a sequence is shown, tags or fusion partners need not be part of it.

B1: zsig81-Cflag (ligand)
chain: SMCHRWSRAVLFPAAHRPKRSSSLPLNPVLQTSLEEVELLYEFLLAELEISPDLQISIKDEELASLRKASDFRTVCNNVIPKSIPDIRRLSASLSSHPGILKKEDFERTVLTLAYTAYRTALSHGHQKDIWAQSLVSLFQALRHDLMRSSQPGVPPDYKDDDDK
In the case of B1, the binding result in experiment [1] and in experiment [2] was “binds” each time.

For the origin of these results see US20070014761A1.
